# The list shows a part of the results. Values are raw readings; no control value is given beside them.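 Primary screen: polymyxin B was added at a level permeabilizing Salmonella outer membranes while sparing inner membranes. DMSO wells, both with and without polymyxin B, established maximum growth. Plate-to-plate variation meant each plate was ranked on its own, and the lowest-OD600 compounds were selected as hits.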
# Test system: Salmonella enterica serovar Typhimurium SL1344
# Assay: bacterial growth OD600 after 18 h with compound and polymyxin B; higher = more bacterial growth (less inhibition)
# Conditions: 50 µM, Mueller-Hinton broth
SMILES,bacterial growth OD600 (polymyxin B 1 µg/mL),bacterial growth OD600 (polymyxin B 0.75 µg/mL)
CC1CCN(Cc2nnnn2CC(=O)N2CCCC(C(=O)c3ccccn3)C2)CC1 (stereo unspecified),0.917,–
COc1cccc(NC(=O)CCC2CCN(C(=O)[C@@H]3C[C@H]3c3ccccc3)CC2)c1,0.695,–
O=C1O[C@@H]2CN(C3CCOCC3)C[C@@H]2N1CCCc1ccc(F)cc1,1.25,–
CC(C)N(C)C(=O)c1cn(Cc2ccccc2Cl)nn1,1.06,–
CC1CN(Cc2ccc3ncccc3c2)Cc2cc(Cl)ccc2O1 (stereo unspecified),–,0
CC(C)CC1(C2CCN(C(=O)Cc3ccc4c(c3)OCO4)CC2)NC(=O)N(Cc2cccs2)C1=O (stereo unspecified),–,0.942
Fc1ccc(F)c(CNC2CCCc3c2cnn3-c2ccccc2F)c1 (stereo unspecified),–,0.786
O=C(c1cn(Cc2ccccc2Cl)nn1)N1CCCCC1CCn1cccn1 (stereo unspecified),0.808,–
Cc1ccc(CN(C)C(=O)c2cc(COc3ccc(-n4cncn4)cc3)on2)o1,0.699,–
Fc1ccccc1Oc1ncccc1CNC1CCSCC1,0.833,–
CCOC(=O)C1(CCOc2ccccc2)CCN(C2CCN(C(C)=O)CC2)CC1,0.933,–
COc1ccc(CCN2CCCC(CN(C)Cc3ccc4nonc4c3)C2)cc1 (stereo unspecified),–,0.685
O=C(NCc1ccccc1)c1csc2nc(-c3ccccc3)cn12,0.582,–
CCC(=O)Nc1cc(C(=O)N2CCC(c3ccncc3)CC2)c2c(c1)nc(Cc1ccccc1)n2C,–,0.846
O=C(c1cc(COc2ccccc2)[nH]n1)N1CCSCC1,0.909,–
Cc1cc(C)n(-c2ccc(NC(=O)C3CCN(C(=O)c4ccnn4C)CC3)cc2)n1,0.833,–
O=C(NC1CCCCC1)C1CCCN(C2CCN(Cc3ccncc3)CC2)C1 (stereo unspecified),0.981,–
Cn1cc(CN2C[C@H]3OC(=O)N(CCCc4ccc(F)cc4)[C@H]3C2)cn1,–,0.773
O=C(C1CCCC1)N1CCC2(CCCN(Cc3cccc(F)c3F)C2=O)C1 (stereo unspecified),0.889,–
COC(=O)CCCNc1nc(CN2CCCCC2c2nccs2)nc2ccccc12 (stereo unspecified),–,0.865
COc1ccccc1/C=C/CN1CCC(CO)(CCOc2ccccc2)CC1,0.763,–

# For reference, 2 of the compounds above:
SMILES,bacterial growth OD600 (polymyxin B 1 µg/mL),bacterial growth OD600 (polymyxin B 0.75 µg/mL)
Cc1ccc(CN(C)C(=O)c2cc(COc3ccc(-n4cncn4)cc3)on2)o1,0.699,–
Fc1ccccc1Oc1ncccc1CNC1CCSCC1,0.833,–

# Source: the supplement of paper PMC12889115
